# Test results taken from the supplement of paper PMC12823440, “Inhibitors supercharge kinase turnover through native proteolytic circuits” (Nature, 2025).
# By UniProt entry, the sequences of proteins in these tests, tags left out. Where a name states a change or a piece, a line headed by the entry shows the natural chain unless it says otherwise.
# UniProt P07947, whole entry, looked up: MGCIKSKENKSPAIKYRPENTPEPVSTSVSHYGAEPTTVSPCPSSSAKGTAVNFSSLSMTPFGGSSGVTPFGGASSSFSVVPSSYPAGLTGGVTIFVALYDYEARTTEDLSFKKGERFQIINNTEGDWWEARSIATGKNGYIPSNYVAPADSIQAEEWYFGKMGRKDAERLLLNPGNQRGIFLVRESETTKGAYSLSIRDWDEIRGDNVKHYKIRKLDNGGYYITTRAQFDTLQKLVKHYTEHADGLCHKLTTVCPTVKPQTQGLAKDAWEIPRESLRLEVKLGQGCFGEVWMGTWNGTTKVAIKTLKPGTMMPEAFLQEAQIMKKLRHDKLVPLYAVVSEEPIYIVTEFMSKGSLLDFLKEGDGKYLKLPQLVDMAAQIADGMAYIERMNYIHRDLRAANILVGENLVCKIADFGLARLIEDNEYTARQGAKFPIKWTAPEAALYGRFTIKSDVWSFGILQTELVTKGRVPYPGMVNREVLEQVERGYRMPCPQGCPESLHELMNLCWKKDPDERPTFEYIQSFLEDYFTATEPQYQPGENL
# UniProt P43403: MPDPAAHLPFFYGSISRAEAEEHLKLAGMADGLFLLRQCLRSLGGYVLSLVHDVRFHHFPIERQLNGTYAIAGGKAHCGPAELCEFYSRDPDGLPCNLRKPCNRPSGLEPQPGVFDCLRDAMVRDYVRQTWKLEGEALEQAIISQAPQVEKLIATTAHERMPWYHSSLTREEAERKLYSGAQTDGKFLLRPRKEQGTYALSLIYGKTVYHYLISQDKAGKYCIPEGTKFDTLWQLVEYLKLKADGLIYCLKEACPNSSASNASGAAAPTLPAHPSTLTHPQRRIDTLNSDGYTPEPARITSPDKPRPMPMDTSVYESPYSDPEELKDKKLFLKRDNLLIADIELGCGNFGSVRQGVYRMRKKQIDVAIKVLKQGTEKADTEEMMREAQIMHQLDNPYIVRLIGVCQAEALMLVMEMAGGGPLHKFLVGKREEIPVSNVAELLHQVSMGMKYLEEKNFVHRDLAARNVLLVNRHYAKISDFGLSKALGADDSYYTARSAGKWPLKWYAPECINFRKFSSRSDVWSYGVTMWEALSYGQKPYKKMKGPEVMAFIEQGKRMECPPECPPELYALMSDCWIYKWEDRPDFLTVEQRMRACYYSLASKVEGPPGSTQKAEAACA
# UniProt P11802: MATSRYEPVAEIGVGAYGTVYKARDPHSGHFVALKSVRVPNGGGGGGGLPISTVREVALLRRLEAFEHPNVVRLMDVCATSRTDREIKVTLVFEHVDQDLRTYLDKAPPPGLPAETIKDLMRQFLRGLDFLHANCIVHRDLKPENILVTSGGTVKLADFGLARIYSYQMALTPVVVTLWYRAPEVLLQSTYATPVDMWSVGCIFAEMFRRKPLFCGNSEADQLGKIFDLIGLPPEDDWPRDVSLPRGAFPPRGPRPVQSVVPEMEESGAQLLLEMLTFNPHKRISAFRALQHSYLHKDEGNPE
# UniProt P50613: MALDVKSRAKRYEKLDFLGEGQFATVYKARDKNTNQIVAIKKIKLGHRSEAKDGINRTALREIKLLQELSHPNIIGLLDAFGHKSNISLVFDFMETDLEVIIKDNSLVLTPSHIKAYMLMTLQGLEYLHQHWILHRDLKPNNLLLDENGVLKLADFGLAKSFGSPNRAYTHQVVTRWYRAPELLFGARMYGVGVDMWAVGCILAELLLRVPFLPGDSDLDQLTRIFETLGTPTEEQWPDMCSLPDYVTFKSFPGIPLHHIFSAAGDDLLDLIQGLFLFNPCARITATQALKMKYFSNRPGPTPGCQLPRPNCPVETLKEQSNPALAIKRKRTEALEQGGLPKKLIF
# UniProt P50750, whole entry: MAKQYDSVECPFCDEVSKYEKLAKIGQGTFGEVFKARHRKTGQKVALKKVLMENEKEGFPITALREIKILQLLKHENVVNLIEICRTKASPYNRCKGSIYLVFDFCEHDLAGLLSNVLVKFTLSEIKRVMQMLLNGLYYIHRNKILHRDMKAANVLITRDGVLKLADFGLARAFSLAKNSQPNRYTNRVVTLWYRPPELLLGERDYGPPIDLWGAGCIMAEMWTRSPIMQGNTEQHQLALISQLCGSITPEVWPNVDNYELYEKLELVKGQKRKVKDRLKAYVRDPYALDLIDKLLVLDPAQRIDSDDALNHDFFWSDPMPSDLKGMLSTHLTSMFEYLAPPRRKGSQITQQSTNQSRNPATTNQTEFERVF
# Structures can show the parent of a compound that is named as a salt. This is one part of the list. Hit calls seldom repeat between salt and free forms of one compound.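 Kinases were expressed as nanoluciferase fusions in K562 cells and luminescence was read every 4 h between 2 and 18 h as percent of control, DMSO set to 100% and a positive control to 0%. A time point counts as decreased when the signal drops significantly (2 sigma). The hit call is the authors' own, does not follow from the count of time points alone, and its rule is not shown.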
# What was measured:
# Conditions in all cases: K562; 2-18 h
# YES1 = YES1 (UniProt P07947); test: number of time points (of 5) at which kinase-Nluc abundance scored as decreased, DMSO-normalised (count); higher = more persistent destabilization
# ZAK = ZAK (UniProt Q9NYL2); test: as above
# ZAP70 = ZAP70 (UniProt P43403); test: as above
# CDK4 = CDK4 (UniProt P11802); test: number of time points (of 4; 2 h point missing) at which kinase-Nluc abundance scored as decreased, DMSO-normalised (count); higher = more persistent destabilization
# CDK7 = CDK7 (UniProt P50613); test: as above
# CDK9 = CDK9 (UniProt P50750); test: as above
Structure (SMILES),number of time points (YES1),number of time points (ZAK),number of time points (ZAP70),number of time points (CDK4),number of time points (CDK7),number of time points (CDK9)
COc1ncccc1-c1cnn2ccc(N3CCN(C(=O)OC(C)C)CC3)nc12 (10 µM),0,0,0,0,0,0
C[C@@H]1CN(c2cc(-c3n[nH]c4ccc(OC5(C)CC5)cc34)ncn2)C[C@H](C)O1 (10 µM),0,0,0,0,0,0
COc1cc(-c2cn[nH]c2)ccc1C(=O)Nc1ccc2c(c1)CCNCC2 (10 µM),0,0,0,0,0,0
C=C[C@@](C)(/C=C/c1ccc(O)cc1)CCC=C(C)C [Bakuchiol] (10 µM),0,0,0,0,0,0
Nc1n[nH]c2nc(-c3ccc(NS(=O)(=O)c4cc(Cl)ccc4F)cc3)cnc12 (10 µM),0,0,0,0,0,0
CC(C)CNc1ccnc(NCc2csc(-c3ccccc3)n2)n1 [KHS101 hydrochloride] (2.5 µM),0,0,0,0,1,0
O=C1NC(=O)/C(=C/c2ccc3nccc(-c4ccncc4)c3c2)S1 (10 µM),0,0,0,0,0,0
FC(F)(F)c1ccc(/C=C/c2nc(COc3ccc(CCCCn4ccnn4)cc3)co2)cc1 [Mubritinib] (10 µM),0,0,0,0,1,0
COCCNc1cc(NC(=O)N2CCCc3cc(CN4CCN(C)CC4=O)c(C=O)nc32)ncc1C#N [Roblitinib] (10 µM),0,0,0,0,0,0
O=C(NC1CCOCC1)c1ccc(-c2cc(-c3c[nH]nc3-c3ccccn3)ccn2)cc1 (10 µM),0,0,0,0,0,0
Cn1cc(C2=C(c3cn(CCCSC(=N)N)c4ccccc34)C(=O)NC2=O)c2ccccc21 [Ro 31-8220 (mesylate)] (2.5 µM),0,0,0,0,1,4
O=C(Nc1nc(=O)n(Cc2ccc(Cl)cc2)s1)c1ccc(Cl)cc1 (10 µM),0,0,0,0,0,0
CC(C)S(=O)(=O)c1ccc2nccc(Nc3ccc4scnc4c3)c2c1 (10 µM),0,0,0,0,0,0
C=CC(=O)Nc1cccc(CNc2nc(Nc3ccc(N4CCN(C)CC4)cc3OC)ncc2Cl)c1 (10 µM),0,0,0,0,0,0
CNc1nc(Nc2ccc(C(=O)N3CCOCC3)cc2OC)ncc1Cl (2.5 µM),0,0,0,0,0,0
CCN(CC)CCC(=O)N1N=C(c2c(-c3ccccc3)c3cc(Br)ccc3[nH]c2=O)CC1c1ccc(Br)cc1 (centres undefined) (2.5 µM),0,0,0,0,0,0
Cc1cc(C)nc(NS(=O)(=O)c2ccc(NC(=S)NC(=O)COc3ccc(Br)cc3Cl)cc2)n1 (2.5 µM),0,0,0,0,0,0
COc1cc(/C=C/C(=O)N2CCC=CC2=O)cc(OC)c1OC [Piperlongumine] (2.5 µM),0,0,0,0,0,0
O=c1cc(-c2cccc3c2Sc2ccccc2S3)oc(N2CCOCC2)c1 (10 µM),0,0,0,0,0,0
Nc1ncnc2c1c(-c1ccc(Oc3ccccc3)cc1)nn2C1CCN(CCOCCOCCOc2ccc3c(c2)CN(C2CCC(=O)NC2=O)C3=O)CC1 (centres undefined) (2.5 µM),0,0,0,0,0,0
O=C1NC(=Nc2c(Cl)cccc2Cl)S/C1=C\c1ccc2nccnc2c1 (2.5 µM),0,0,0,0,0,1
CN1CC[C@@H](c2c(O)cc(O)c3c(=O)cc(-c4ccc(C(F)(F)F)cc4Cl)oc23)[C@@H]1CO [Voruciclib (hydrochloride)] (10 µM),0,0,0,0,0,0

Structure (SMILES),number of time points (YES1),number of time points (ZAK),number of time points (ZAP70),number of time points (CDK4),number of time points (CDK7),number of time points (CDK9)
CN(C)S(=O)(=O)c1ccc2c(c1)/C(=C/c1cc3c([nH]1)CCCC3)C(=O)N2 (2.5 µM),0,0,0,0,0,0
Nc1nccc(Oc2ccc(NC(=O)c3c[nH]cc(-c4ccc(F)cc4)c3=O)cc2F)c1Cl (10 µM),1,0,0,0,4,0
CC(C)c1cccc(C(C)C)c1N1C(=O)c2ccc(N)cc2C1=O (2.5 µM),0,0,0,0,0,0
C=CCc1ccc(O)c(-c2ccc(O)c(CC=C)c2)c1 [Honokiol] (10 µM),0,0,0,0,0,0
NC(=O)N1CCC(CC(=O)N2CCC([C@H]3c4ncc(Br)cc4CCc4cc(Cl)cc(Br)c43)CC2)CC1 [Lonafarnib] (2.5 µM),0,0,0,0,0,0
C[C@@H]1CCNC(=O)c2cc3ccc(C(=O)Nc4nc5ccccc5n4CCCN(C)C)cc3n21 (10 µM),0,0,0,0,0,0
O=C(N[C@@H](C1CC1)C(F)(F)F)c1cc(-c2cnn3cc(-c4ccc(F)cc4)cnc23)cs1 (10 µM),0,0,0,0,0,0
CC(=O)N1CCC(c2cc(-c3ccc(NC(=O)c4cccn(-c5ccc(F)cc5)c4=O)cc3F)c3c(N)ncnn23)CC1 (0.5 µM),0,0,0,0,1,0
Cc1cccc(-c2[nH]c(C(C)(C)C)nc2-c2ccc3nccnc3c2)n1 (10 µM),0,0,0,0,0,0
COc1ccc(/C=C/C(=O)C2(C(=O)/C=C/c3ccc(OC)c(OC)c3)CCCCC2)cc1OC (2.5 µM),0,0,0,0,1,0
C[C@@H]1COCCN1c1nc(-c2cnc(N)cc2C(F)F)nc(N2[C@H](C)COC[C@@H]2C)n1 (2.5 µM),0,0,0,0,3,0
CN(C)CCC=C1c2ccccc2CCc2ccccc21 [Amitriptyline (hydrochloride)] (2.5 µM),0,0,0,0,0,0
COc1ccc2cc3[n+](cc2c1OC)CCc1cc(O)c(O)cc1-3 [Demethyleneberberine] (10 µM),0,0,0,0,0,0
O=C(Nc1cccc(Nc2ncc(Br)c(NCCc3cnc[nH]3)n2)c1)N1CCCC1 (10 µM),0,0,0,0,0,0
O=C(Nc1cccc(C(F)(F)F)c1)c1cccc2cc(Oc3cc(CO)ncn3)ccc12 (10 µM),0,0,0,0,0,0
CCc1cncnc1N1CCN(Cc2nc3ccc(C(F)(F)F)cc3[nH]2)CC1 (10 µM),0,0,0,0,0,0
Nc1ncnc2c1c(COc1cccc(Cl)c1)nn2C1CCOCC1 (10 µM),0,0,0,0,0,0
CCCCCCCC/C=C\CCCCCCCCCCCC(=O)O [Erucic acid] (10 µM),0,0,0,0,0,0
CNC(=O)c1ccccc1Oc1nc(Nc2cc(OC)c(OC)c(OC)c2)ncc1Br (2.5 µM),0,0,0,0,0,0
O=C(O)c1cccc(CN2C(=O)/C(=C(\c3ccccc3)c3ccc(Cl)cc3)c3ccccc32)c1 (2.5 µM),0,0,0,0,0,0
NC1=NCCN1CC(=O)O [Cyclocreatine] (10 µM),0,0,0,0,0,0
C=CC(=O)Nc1cc(Nc2nccc(-n3cc(CN(C)C)c(-c4ccccc4)n3)n2)c(OC)cc1N1CCOCC1 [Lazertinib] (10 µM),0,0,0,0,0,0

# Record cards (already shown):
# COc1ccc(/C=C/C(=O)C2(C(=O)/C=C/c3ccc(OC)c(OC)c3)CCCCC2)cc1OC (2.5 µM) in the list: number of time points (YES1): 0; number of time points (ZAK): 0; number of time points (ZAP70): 0; number of time points (CDK4): 0; number of time points (CDK7): 1; number of time points (CDK9): 0
# COc1ccc2cc3[n+](cc2c1OC)CCc1cc(O)c(O)cc1-3 [Demethyleneberberine] (10 µM) in the list: number of time points (YES1): 0; number of time points (ZAK): 0; number of time points (ZAP70): 0; number of time points (CDK4): 0; number of time points (CDK7): 0; number of time points (CDK9): 0
